Test results as given in patent US20070207967A1, “Peptide Inhibitors of Matrix Metalloproteinase Activity” (CTT CANCER TARGETING TECHNOLOGIES OY, priority 2004, published 2007).
Results are given in words; binding and its absence hold for the method and conditions named. For some of these results: Binding seen in cells or lysates may run through a third protein. Some binding calls cover weakened binding; strength is not graded here.

By UniProt entry, the sequences of proteins in these tests, tags left out. Where a name states a change or a piece, a line headed by the entry shows the natural chain unless it says otherwise. Chains listed by the source or under a name are the forms on record and can include a tag or linker.
human plasma fibronectin (P02751, form named): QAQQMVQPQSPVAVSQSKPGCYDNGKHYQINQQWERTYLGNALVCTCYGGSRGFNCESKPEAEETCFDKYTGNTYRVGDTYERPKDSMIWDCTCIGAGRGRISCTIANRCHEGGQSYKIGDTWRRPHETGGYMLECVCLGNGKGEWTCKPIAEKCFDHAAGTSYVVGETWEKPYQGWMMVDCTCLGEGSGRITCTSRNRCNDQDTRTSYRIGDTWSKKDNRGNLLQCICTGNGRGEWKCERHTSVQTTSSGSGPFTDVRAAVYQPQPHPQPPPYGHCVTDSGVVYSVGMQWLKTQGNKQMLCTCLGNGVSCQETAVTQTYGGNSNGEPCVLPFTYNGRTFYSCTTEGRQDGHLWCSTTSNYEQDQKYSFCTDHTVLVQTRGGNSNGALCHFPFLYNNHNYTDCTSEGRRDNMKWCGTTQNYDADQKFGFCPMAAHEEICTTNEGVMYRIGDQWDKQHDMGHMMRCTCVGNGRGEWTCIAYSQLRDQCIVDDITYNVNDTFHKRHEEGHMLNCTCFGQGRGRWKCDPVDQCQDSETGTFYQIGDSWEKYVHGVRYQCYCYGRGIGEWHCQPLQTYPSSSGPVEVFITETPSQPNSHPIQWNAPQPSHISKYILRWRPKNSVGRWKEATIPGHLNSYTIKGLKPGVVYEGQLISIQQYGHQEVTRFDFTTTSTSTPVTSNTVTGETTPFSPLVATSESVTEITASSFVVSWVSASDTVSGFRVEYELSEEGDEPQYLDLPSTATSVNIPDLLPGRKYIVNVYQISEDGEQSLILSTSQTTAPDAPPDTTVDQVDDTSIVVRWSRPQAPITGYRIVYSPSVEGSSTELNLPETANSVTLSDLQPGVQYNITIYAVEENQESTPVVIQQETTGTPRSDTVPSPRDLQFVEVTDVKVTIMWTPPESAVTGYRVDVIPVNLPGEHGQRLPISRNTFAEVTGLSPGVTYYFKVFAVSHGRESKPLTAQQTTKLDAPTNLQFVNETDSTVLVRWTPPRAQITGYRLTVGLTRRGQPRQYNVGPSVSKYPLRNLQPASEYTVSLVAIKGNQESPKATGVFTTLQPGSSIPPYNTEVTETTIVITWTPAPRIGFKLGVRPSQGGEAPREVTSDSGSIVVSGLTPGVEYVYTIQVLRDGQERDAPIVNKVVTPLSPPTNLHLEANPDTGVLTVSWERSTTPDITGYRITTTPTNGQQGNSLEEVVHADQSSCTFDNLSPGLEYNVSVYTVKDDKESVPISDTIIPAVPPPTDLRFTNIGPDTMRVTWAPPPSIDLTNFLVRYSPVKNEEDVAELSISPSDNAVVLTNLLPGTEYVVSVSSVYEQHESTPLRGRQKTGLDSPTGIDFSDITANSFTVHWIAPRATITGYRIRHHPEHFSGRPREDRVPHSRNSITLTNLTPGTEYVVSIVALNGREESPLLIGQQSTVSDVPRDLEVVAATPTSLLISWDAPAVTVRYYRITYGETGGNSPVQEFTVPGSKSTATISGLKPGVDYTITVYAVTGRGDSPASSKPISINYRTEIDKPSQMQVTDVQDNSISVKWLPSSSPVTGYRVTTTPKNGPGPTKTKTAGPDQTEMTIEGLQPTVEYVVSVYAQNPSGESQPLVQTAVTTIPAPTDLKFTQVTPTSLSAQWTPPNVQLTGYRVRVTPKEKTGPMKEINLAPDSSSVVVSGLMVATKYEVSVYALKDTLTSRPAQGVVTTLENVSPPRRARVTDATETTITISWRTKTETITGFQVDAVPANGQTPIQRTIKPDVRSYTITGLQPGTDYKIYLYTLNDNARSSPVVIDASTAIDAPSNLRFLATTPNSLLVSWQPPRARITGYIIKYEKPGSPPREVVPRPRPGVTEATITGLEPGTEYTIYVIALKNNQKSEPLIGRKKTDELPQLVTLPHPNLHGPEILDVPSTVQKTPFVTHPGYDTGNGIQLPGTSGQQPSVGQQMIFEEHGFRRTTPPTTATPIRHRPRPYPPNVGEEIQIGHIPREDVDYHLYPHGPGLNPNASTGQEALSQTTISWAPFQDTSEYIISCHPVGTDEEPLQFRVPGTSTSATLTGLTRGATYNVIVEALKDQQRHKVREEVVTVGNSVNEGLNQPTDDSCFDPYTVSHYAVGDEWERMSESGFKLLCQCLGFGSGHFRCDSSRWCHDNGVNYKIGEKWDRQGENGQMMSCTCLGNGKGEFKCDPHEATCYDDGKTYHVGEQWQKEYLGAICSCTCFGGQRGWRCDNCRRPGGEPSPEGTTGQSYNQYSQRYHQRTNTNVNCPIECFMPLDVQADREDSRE
UniProt P06756: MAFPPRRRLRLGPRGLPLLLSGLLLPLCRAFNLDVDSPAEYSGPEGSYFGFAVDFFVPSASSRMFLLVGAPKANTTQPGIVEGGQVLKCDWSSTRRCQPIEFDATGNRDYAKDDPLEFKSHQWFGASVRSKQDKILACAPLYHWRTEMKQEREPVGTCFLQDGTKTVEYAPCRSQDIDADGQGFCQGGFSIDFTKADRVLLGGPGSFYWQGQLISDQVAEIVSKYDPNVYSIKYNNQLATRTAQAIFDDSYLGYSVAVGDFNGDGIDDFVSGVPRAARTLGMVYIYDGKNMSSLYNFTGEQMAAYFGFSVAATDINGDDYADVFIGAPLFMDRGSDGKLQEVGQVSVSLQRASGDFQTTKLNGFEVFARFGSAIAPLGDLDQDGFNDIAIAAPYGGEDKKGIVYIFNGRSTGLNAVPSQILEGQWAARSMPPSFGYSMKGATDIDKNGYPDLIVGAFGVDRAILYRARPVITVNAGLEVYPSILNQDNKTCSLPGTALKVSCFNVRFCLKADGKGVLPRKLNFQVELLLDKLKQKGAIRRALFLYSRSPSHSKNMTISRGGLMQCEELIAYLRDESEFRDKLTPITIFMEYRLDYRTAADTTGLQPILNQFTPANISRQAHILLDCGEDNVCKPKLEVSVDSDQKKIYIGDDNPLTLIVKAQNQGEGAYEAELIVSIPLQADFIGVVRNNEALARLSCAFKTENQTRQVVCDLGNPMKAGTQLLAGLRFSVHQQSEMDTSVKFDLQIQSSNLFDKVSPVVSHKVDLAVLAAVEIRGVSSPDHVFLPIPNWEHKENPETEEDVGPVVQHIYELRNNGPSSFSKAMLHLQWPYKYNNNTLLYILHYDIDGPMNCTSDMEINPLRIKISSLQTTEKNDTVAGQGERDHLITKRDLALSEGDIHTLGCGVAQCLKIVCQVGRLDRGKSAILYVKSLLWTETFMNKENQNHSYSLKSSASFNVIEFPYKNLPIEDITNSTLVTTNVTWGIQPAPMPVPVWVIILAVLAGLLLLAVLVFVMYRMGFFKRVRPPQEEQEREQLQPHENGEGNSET
UniProt P18084: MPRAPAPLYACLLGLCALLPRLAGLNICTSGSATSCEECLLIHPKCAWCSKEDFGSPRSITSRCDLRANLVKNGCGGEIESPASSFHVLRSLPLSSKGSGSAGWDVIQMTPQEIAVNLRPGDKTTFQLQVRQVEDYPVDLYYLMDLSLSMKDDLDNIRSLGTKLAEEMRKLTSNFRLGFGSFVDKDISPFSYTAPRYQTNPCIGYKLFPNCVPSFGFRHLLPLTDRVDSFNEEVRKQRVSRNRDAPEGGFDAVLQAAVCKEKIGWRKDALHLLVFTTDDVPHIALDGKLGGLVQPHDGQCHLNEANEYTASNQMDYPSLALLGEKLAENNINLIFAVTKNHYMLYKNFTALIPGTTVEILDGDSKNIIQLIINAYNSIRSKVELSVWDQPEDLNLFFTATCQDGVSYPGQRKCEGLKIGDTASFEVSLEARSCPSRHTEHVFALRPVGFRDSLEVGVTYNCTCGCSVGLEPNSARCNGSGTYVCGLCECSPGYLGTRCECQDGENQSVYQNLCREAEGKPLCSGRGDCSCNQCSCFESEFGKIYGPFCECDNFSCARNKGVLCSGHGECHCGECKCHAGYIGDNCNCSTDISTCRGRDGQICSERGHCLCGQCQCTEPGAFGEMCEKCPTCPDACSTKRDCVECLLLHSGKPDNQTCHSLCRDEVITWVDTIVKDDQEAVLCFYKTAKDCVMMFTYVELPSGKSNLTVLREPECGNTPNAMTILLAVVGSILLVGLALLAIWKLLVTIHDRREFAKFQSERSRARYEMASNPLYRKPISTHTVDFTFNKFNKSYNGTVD
UniProt P14780: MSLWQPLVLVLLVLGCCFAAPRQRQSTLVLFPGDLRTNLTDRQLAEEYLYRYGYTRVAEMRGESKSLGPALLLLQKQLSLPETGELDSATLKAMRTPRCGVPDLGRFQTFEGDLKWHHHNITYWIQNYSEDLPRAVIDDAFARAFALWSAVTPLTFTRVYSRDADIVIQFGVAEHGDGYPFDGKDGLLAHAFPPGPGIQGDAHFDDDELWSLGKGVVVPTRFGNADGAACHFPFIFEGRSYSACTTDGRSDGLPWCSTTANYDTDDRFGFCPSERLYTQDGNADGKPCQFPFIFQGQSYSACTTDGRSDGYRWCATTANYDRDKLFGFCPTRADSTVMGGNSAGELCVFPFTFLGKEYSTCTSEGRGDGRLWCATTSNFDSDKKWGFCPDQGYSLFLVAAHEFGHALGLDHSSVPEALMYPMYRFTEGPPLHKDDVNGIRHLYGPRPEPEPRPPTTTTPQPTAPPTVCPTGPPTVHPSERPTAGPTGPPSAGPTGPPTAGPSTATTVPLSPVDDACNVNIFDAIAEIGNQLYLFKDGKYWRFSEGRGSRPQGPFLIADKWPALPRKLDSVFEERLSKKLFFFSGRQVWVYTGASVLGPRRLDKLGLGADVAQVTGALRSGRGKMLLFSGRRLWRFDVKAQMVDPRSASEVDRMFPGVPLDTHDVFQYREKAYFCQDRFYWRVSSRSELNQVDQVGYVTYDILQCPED

Tests used:
[1] = biological target: human plasma fibronectin (human) (UniProt P02751); test: solid phase and pepspot assays (discussion)
[2] = biological target: human plasma fibronectin (human) (UniProt P02751); test: solid phase binding assay, biotinylated CBD 5 µg/ml; inhibited by PPC
[3] = biological target: T1, αVβ5 integrin of HT1080 cells (human) (UniProt P06756+P18084); test: co-immunoprecipitation with anti-integrin cytoplasmic domain antisera, western blot
[4] = biological target: T1, αVβ5 integrin of HT1080 cells (human); test: co-immunoprecipitation from HT1080 cells (discussion)

| binding [1] | binding [2] | binding [3] | binding [4] | Substance |
| --- | --- | --- | --- | --- |
| binds | binds | – | – | MMP-9 collagen binding domain (CBD), amino acids Gly204-Gly373 (from UniProt P14780 223-392) |
| – | – | binds | binds | pro-MMP-9 (purified human pro-matrix metalloproteinase-9) (from UniProt P14780 20-707) (enzyme) |
